Experiments:
[1] = system: lung cancer A-549 cell line; assay: CellTiter-Glo Luminescent cell viability assay, anti-proliferative activity, A-549; assay type: cell-based, human; settings: A-549 IC50 vs Sunitinib
Protocol: (§1) The anti-proliferative activity of the title compounds 3a-e, 5a-e, 7a-c, and 10a-l towards cancer cell lines, normal cell lines, and multidrug-resistant lung cancer NCI-H69AR cell line was determined using CellTiter-Glo™ Luminescent cell viability assay according to the previously published procedures[14]^,[15].
The cancer cell growth inhibitory activity of the synthesised 25 compounds 3a-e, 5a-e, 7a-c, and 10a-l was evaluated in vitro towards three human cancer cell lines, namely lung cancer A-549, human colon cancer HT-29, and breast cancer ZR-75 cell lines using CellTiter-Glo™ Luminescent cell viability assay. Sunitinib was included in this assay as a reference drug.
The prepared hydrazonoindolin-2-ones were first evaluated at preliminary anti-proliferative assay against the three cancer cell lines in quadruplicate at a single concentration of 30 µM. The data presented as percentage growth inhibition (GI%) caused by the test compounds (Table 1).

[2] = system: NCI-H69AR cell line (expresses ABCC1 efflux pump); assay: Growth inhibition of multidrug resistant lung cancer cell line; assay type: cell-based; settings: NCI-H69AR vs A-549
Protocol: as §1
The anti-proliferative activity of compounds 7b and 10e was evaluated towards multidrug resistant lung cancer cell line (NCI-H69AR), which expresses the ABCC1 efflux pump protein. […] Furthermore, the H69AR cells manifested a lesser degree of resistance to the reference drug, Sunitinib (1.9-fold less sensitive).

SMILES: Cc1csc(C=NN=C2C(=O)Nc3ccc(Cl)cc32)n1 [Compound 5c, 5-Chloro-3-(((4-methylthiazol-2-yl)methylene)hydrazono)indolin-2-one]
- times more active than Sunitinib [1]: 4.7 times

SMILES: O=C1Nc2ccc(Cl)cc2C1=NN=Cc1nccs1 [Compound 5b, 5-Chloro-3-((thiazol-2-ylmethylene)hydrazono)indolin-2-one]
- times more active than Sunitinib [1]: 2 times

SMILES: Cc1csc(C=NN=C2C(=O)Nc3ccc(Br)cc32)n1 [Compound 5e, 5-Bromo-3-(((4-methylthiazol-2-yl)methylene)hydrazono)indolin-2-one]
- times more active than Sunitinib [1]: 2.8 times

SMILES: O=C1Nc2ccc(Cl)cc2C1=NNc1nc(-c2ccccc2)cs1 [Compound 10e, 5-Chloro-3–(2-(4-phenylthiazol-2-yl)hydrazono)indolin-2-one]
- Fold resistant [2]: 4.0
- times more active than Sunitinib [1]: 2.1 times

SMILES: O=C1Nc2ccc(Cl)cc2C1=NN=Cc1ccn[nH]1 [Compound 7b, 3-(((1H-pyrazol-5-yl)methylene)hydrazono)-5-chloroindolin-2-one]
- Fold resistant [2]: 4.2
- times more active than Sunitinib [1]: 4.4 times

SMILES: CCN(CC)CCNC(=O)c1c(C)[nH]c(/C=C2\C(=O)Nc3ccc(F)cc32)c1C [Sunitinib, reference compound]
- Fold resistant [2]: 1.9

From article PMC7011955, “Synthesis and biological evaluation of certain hydrazonoindolin-2-one derivatives as new potent anti-proliferative agents” (Journal of Enzyme Inhibition and Medicinal Chemistry, 2018)
